Reference: article doi:10.1101/2024.07.05.602318 (bioRxiv, 2024)
These are yes or no findings as the source states them, for the method shown. Some binding calls cover weakened binding; strength is not graded here.

Protein sequences, listed by entry. Tags and fused reporters are not part of them. Lines headed by an entry give the natural chain unless they say otherwise; changes in a name come on top.
UniProt Q16740: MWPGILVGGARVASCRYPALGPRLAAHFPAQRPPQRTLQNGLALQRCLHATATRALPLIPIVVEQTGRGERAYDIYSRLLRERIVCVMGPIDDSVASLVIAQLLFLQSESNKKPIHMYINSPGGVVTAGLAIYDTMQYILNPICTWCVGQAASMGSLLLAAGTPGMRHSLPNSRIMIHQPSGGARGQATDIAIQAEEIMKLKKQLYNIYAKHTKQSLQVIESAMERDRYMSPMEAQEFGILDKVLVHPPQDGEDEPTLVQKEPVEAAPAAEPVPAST
UniProt O76031: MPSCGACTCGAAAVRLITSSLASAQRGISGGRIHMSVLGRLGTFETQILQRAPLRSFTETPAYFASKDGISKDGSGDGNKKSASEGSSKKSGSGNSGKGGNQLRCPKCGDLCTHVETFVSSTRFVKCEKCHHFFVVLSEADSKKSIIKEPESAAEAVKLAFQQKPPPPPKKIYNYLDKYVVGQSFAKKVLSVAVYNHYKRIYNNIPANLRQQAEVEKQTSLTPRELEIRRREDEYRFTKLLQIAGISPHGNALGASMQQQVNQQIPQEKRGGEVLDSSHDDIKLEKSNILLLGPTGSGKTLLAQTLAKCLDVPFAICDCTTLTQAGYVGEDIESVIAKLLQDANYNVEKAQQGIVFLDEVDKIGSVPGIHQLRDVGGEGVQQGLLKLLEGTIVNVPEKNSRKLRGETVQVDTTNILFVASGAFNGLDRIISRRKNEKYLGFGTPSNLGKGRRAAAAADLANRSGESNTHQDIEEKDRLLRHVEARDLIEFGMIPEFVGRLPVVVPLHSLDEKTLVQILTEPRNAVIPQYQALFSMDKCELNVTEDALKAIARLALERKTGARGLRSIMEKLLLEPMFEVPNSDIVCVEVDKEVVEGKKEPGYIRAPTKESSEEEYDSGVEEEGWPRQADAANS

Target: ATPγS-locked CLPXP (CLPX-3xFLAG hexamer with CLPP 14-mer) (human | human (by the printed accession Q16740)) (UniProt O76031+Q16740)
Experiment: co-IP

binding: binds weakly
B1: ALAS2 (ALA synthase, erythroid isozyme), residues 54-587 (enzyme, UniProt P22557 54-587)
chain: KATKAGGDSPSWAKGHCPFMLSELQDGKSKIVQKAAPEVQEDVKAFKTDLPSSLVSVSLRKPFSGPQEQEQISGKVTHLIQNNMPGNYVFSYDQFFRDKIMEKKQDHTYRVFKTVNRWADAYPFAQHFSEASVASKDVSVWCSNDYLGMSRHPQVLQATQETLQRHGAGAGGTRNISGTSKFHVELEQELAELHQKDSALLFSSCFVANDSTLFTLAKILPGCEIYSDAGNHASMIQGIRNSGAAKFVFRHNDPDHLKKLLEKSNPKIPKIVAFETVHSMDGAICPLEELCDVSHQYGALTFVDEVHAVGLYGSRGAGIGERDGIMHKIDIISGTLGKAFGCVGGYIASTRDLVDMVRSYAAGFIFTTSLPPMVLSGALESVRLLKGEEGQALRRAHQRNVKHMRQLLMDRGLPVIPCPSHIIPIRVGNAALNSKLCDLLLSKHGIYVQAINYPTVPRGEELLRLAPSPHHSPQMMEDFVEKLLLAWTAVGLPLQDVSVAACNFCRRPVHFELMSEWERSYFGNMGPQYVTTYA
